Laboratory results published in publication PMC11672316, “Identification of ANXA1 as a Novel Upstream Negative Regulator of Notch1 Function in AML” (Advanced Science, 2024).
No constants are given. Whether binding was seen depends on the method and setting. For some assays here: Binding seen in cells or lysates may run through a third protein. Some binding calls cover weakened binding; strength is not graded here. Sequences can lack the tags named with a protein. Blank lines part the entries; values can stand above or below the molecule they belong to.

Experiments:
[1] = target: T1, GST-tagged full-length Annexin A1 (ANXA1) (UniProt P04083); experiment: pull-down; GST-tagged ANXA1 as bait, Notch1 from the cell lysate of sgANXA1 and control cell lines, in vitro; only the target purified
T1 sequence: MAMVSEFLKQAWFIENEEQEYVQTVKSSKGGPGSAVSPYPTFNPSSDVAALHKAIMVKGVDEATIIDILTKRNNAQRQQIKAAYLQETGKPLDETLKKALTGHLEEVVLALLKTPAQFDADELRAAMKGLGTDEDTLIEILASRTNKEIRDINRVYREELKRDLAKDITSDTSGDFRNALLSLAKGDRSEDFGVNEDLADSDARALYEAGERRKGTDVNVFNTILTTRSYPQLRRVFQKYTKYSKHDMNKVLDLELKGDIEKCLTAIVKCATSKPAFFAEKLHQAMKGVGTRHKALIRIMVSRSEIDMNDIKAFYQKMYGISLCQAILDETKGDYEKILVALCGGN

[2] = target: T1, GST-tagged full-length Annexin A1 (ANXA1); experiment: BLI; synthetic peptides of the ankyrin domain of NICD at increasing concentrations with GST-ANXA1; both purified

binding [1]: binds
Molecule: Notch1 in the cell lysate (from UniProt P46531 19-2555)

binding [2]: binds
B1: NICD-5l peptide (peptide)
peptide: KSALHWAAAVNNVDAAVVLLKNGANKDMQNNR
notes: also called NICD-5 linear peptide; source: synthetic peptide (solid phase, Wang resin)
